We go through one molecule from paper PMC11369092.

In the assay the target is recombinant GST-tagged RPL40. The assay can be described thus: pull-down; 2.5 ug Flag-SMYD5 and 1 ug GST-RPL40 mixed in 150 uL binding buffer (20 mM TrisCl 7.4, 150 mM NaCl, 0.2% Triton X-100), held on 10 uL GST resin, washed 4 times, SDS-PAGE and coomassie blue staining; Flag-SMYD5 alone as control; both purified.

No constants are given. Whether binding was seen depends on the method and setting. A result given as binding can be weak or reduced; the word gives no strength. Where a sequence is shown, tags or fusion partners need not be part of it.

B1: Flag-tagged recombinant SMYD5 (enzyme, UniProt Q6GMV2 1-418)
chain: MAASMCDVFSFCVGVAGRARVSVEVRFVSSAKGKGLFATQLIRKGETIFVERPLVAAQFLWNALYRYRACDHCLRALEKAEENAQRLTGKPGQVLPHPELCTVRKDLHQNCPHCQVMYCSAECRLAATEQYHQVLCPGPSQDDPLHPLNKLQEAWRSIHYPPETASIMLMARMVATVKQAKDKDRWIRLFSQFCNKTANEEEEIVHKLLGDKFKGQLELLRRLFTEALYEEAVSQWFTPDGFRSLFALVGTNGQGIGTSSLSQWVHACDTLELKPQDREQLDAFIDQLYKDIEAATGEFLNCEGSGLFVLQSCCNHSCVPNAETSFPENNFLLHVTALEDIKPGEEICISYLDCCQRERSRHSRHKILRENYLFVCSCPKCLAEADEPNVTSEEEEEEEEEEEGEPEDAELGDEMTDV
With B1, the binding result is “binds”.
